Source: patent publication US9845340B2, “Peptides that specifically bind HGF receptor (cMet) and uses thereof” (Dyax Corp., priority 2003, dated 2017)
pKd: −log10 of the molar value. For at least one compound, name, drawing or mass did not settle the structure.

The chains behind the UniProt entries cited, without tags or fusion partners. A line that says so, or that is headed by a name, gives the form on record, which may keep a tag or linker. Residues count along the entry.
UniProt P08581, 25-307 limits assumed: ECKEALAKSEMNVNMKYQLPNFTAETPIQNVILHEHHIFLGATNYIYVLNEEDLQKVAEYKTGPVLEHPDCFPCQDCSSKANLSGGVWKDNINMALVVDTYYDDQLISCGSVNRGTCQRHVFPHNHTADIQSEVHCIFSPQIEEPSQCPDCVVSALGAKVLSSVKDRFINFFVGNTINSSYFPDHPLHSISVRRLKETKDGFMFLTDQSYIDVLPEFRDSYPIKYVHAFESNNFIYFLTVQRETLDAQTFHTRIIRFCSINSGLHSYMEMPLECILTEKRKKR
UniProt P08581, with tags, fused parts or gaps limits assumed: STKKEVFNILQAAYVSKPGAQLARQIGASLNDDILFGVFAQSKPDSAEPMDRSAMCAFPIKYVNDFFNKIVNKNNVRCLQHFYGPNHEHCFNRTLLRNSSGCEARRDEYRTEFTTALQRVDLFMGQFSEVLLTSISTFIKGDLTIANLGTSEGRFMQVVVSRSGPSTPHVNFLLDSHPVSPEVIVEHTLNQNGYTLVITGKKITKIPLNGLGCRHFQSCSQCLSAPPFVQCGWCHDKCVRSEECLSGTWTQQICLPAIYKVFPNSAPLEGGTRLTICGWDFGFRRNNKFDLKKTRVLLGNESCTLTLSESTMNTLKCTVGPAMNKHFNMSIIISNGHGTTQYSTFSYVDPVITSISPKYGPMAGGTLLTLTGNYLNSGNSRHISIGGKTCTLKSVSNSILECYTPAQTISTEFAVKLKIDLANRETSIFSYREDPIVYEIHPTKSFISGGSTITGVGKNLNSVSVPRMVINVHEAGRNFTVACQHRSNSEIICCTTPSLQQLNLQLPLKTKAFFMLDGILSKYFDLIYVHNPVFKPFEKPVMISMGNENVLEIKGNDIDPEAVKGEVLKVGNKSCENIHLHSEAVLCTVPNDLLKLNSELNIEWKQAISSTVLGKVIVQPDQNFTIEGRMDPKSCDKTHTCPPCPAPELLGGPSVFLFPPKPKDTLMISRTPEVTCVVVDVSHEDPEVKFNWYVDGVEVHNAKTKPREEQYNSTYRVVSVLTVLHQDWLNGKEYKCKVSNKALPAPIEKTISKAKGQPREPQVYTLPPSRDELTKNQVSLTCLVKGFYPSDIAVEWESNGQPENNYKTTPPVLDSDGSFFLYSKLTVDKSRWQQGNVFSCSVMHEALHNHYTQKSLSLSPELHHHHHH

Target: cMet-Fc fusion protein (Homo sapiens, UniProt P08581)
Assay: Fluorescence anisotropy / polarization direct binding, human cMet
Settings: read-out: Kd (human), fluorescein-labeled peptide 20 nM

## CSCC[C@H](NC(=O)[C@H](CC(=O)O)NC(=O)[C@H](C)NC(=O)[C@H](CC(=O)O)NC(=O)[C@H](CCC(N)=O)NC(=O)[C@H](CC(C)C)NC(=O)[C@H](CCC(=O)O)NC(=O)[C@H](Cc1ccc(O)cc1)NC(=O)[C@H](Cc1ccc(O)cc1)NC(=O)[C@@H]1CCCN1C(=O)[C@H](CCC(N)=O)NC(=O)[C@H](C)NC(C)=O)C(=O)N[C@@H](CC(C)C)C(=O)N[C@@H](CC(C)C)C(=O)N[C@H](C(=O)N[C@H](C(=O)N[C@@H](C)C(=O)N[C@@H](CC(C)C)C(=O)N[C@@H](CC(C)C)C(=O)N[C@@H](CO)C(=O)N[C@H](C(=O)NCC(=O)NCC(=O)NCC(=O)NCC(=O)N[C@@H](CCCCNC(=O)c1ccc2c(c1)C(=O)OC21c2ccc(O)cc2Oc2cc(O)ccc21)C(N)=O)[C@@H](C)O)C(C)C)C(C)C [SEQ ID NO: 458]
  pKd: 5.43
